Data on 62 compounds can be found in the supplement of paper PMC9744312.

Where a name gives a salt, the structure may show the parent alone. This is one part of the list. This is a noisy data set.

The subject of this assay is Peyronie's disease tunica albuginea primary fibroblasts. As to the kind of experiment: inhibition of TGF-beta1-induced alpha-SMA expression (myofibroblast transformation), relative to TGF-beta1-only and untreated controls; higher = stronger inhibition of myofibroblast transformation. Particulars: 10 µM; TGF-beta1 10 ng/mL; 72 h.
On to `C[C@H](N)[C@H](O)c1cccc(O)c1` [Metaraminol Bitartrate], for which the “inhibition of TGF-beta1-induced alpha-SMA expression” value (from here on “inhibition”) amounted to 35.7%.

For `CC1(C)S[C@@H]2[C@H](NC(=O)C(C(=O)O)c3ccccc3)C(=O)N2[C@H]1C(=O)O` (some centres not stated) [Carbenicillin disodium], the “inhibition” value is 24.8%.

For the compound `O=C1CN(/N=C/c2ccc(-c3ccc([N+](=O)[O-])cc3)o2)C(=O)N1` [Dantrolene sodium hemiheptahydrate], the “inhibition” value came to 10.4%.

`O=C1CN(/N=C/c2ccc(-c3ccc([N+](=O)[O-])cc3)o2)C(=O)N1` [Dantrolene sodium]: the “inhibition” value was 15.3%.

With `CC(C)OC(=O)CCC/C=C\C[C@@H]1[C@@H](/C=C/[C@@H](O)COc2cccc(C(F)(F)F)c2)[C@H](O)C[C@@H]1O` [Travoprost], the “inhibition” value is -2.9%.

Take `CCOC(=O)n1ccn(C)c1=S` [Carbimazole]: the “inhibition” value is 21.6%.

As for `CC1(O)CCC(C(C)(C)O)CC1` (configuration not stated) [Terpin hydrate], the “inhibition” value was 32.8%.

On to `CC1(C)S[C@@H]2[C@H](NC(=O)[C@H](C(=O)O)c3ccsc3)C(=O)N2[C@H]1C(=O)O` [Ticarcillin sodium], for which the “inhibition” value was determined as 55.7%.

With `CN[C@H]1C(=O)N[C@@H]2Cc3ccc(cc3)Oc3cc4cc(c3O[C@@H]3O[C@H](C(=O)O)[C@@H](O)[C@H](O)[C@H]3NC(=O)CCCCCCCCC(C)C)Oc3ccc(cc3Cl)[C@@H](O)[C@@H]3NC(=O)[C@H](NC(=O)[C@@H]4NC(=O)[C@@H](NC2=O)c2cc(cc(O)c2Cl)Oc2cc1ccc2O)c1ccc(O)c(c1)-c1c(O[C@H]2O[C@H](CO)[C@@H](O)[C@H](O)[C@@H]2O)cc(O)cc1[C@@H](C(=O)NCCCN(C)C)NC3=O` [Dalbavancin], the “inhibition” value came to 42.2%.

Regarding `Cc1cc(NS(=O)(=O)c2ccc(N)cc2)no1` [Sulfamethoxazole sodium], the “inhibition” value is 33.5%.

As to `Cc1cc(NS(=O)(=O)c2ccc(N)cc2)no1` [Sulfamethoxazole], the “inhibition” value was found to be 30.7%.

Turning to `CN[C@@H]1[C@@H](O)[C@@H](O[C@@H]2[C@@H](O)[C@H](O[C@H]3OC(CN)=CC[C@H]3N)[C@@H](N)C[C@H]2N)OC[C@]1(C)O` [Sisomicin sulfate], the “inhibition” value came out at 98.3%.

Turning to `C[C@H](Oc1ccc(S(C)(=O)=O)cc1C(=O)N1CCN(c2ncc(C(F)(F)F)cc2F)CC1)C(F)(F)F` [Bitopertin], the “inhibition” value is -4.27%.

Regarding `CC[C@H]1OC(=O)C[C@@H](O)[C@H](C)[C@@H](O[C@@H]2O[C@H](C)[C@@H](O[C@H]3C[C@@](C)(O)[C@@H](O)[C@H](C)O3)[C@H](N(C)C)[C@H]2O)[C@@H](CC=O)C[C@@H](C)C(=O)/C=C/C(C)=C/[C@@H]1CO[C@@H]1O[C@H](C)[C@@H](O)[C@@H](OC)[C@H]1OC` [Tylosin tartrate], the “inhibition” value was found to be 1.94%.

Consider `NC[C@H]1O[C@H](O[C@H]2[C@H](O)[C@@H](O[C@H]3O[C@H](CO)[C@@H](O)[C@H](N)[C@H]3O)[C@H](N)C[C@@H]2N)[C@H](O)[C@@H](O)[C@@H]1O` [Kanamycin sulfate], for which the “inhibition” value is -2.27%.

`O=C(CCCCCCC(=O)Nc1ccccc1)NO` [Vorinostat (SAHA, MK0683)]: the “inhibition” value stood at 93.1%.

For `COC(=O)C1=C(C)NC(C)=C(C(=O)OC2CCCN(Cc3ccccc3)C2)C1c1cccc([N+](=O)[O-])c1` (configuration not stated) [Benidipine HCl], the “inhibition” value came to 64.1%.

As to `CCNC(=O)CCC/C=C\C[C@@H]1[C@@H](/C=C/[C@@H](O)CCc2ccccc2)[C@H](O)C[C@@H]1O` [Bimatoprost], the “inhibition” value turned out to be 25%.

For `COC(=O)N[C@H](C(=O)N1CCC[C@H]1c1nc(-c2ccc3c(c2)O[C@@H](c2ccccc2)n2c-3cc3cc(-c4c[nH]c([C@@H]5CCCN5C(=O)[C@@H](NC(=O)OC)C(C)C)n4)ccc32)c[nH]1)C(C)C` [Elbasvir], the “inhibition” value worked out at 16.7%.

As to `O=C(O)c1ccc2c(c1)nc(Nc1cccc(Cl)c1)c1ccncc12` [Silmitasertib (CX-4945)], the “inhibition” value is 10.7%.

In the case of `CC1(C)O[C@@H]2C[C@H]3[C@@H]4CCC5=CC(=O)C=C[C@]5(C)[C@H]4[C@@H](O)C[C@]3(C)[C@]2(C(=O)CO)O1` [Desonide], the “inhibition” value came out at 87.3%.

In the case of `CCN(CC)C(=S)SSC(=S)N(CC)CC` [Disulfiram], the “inhibition” value is 74.8%.

Take `COc1cc2/c(=N/c3ccc(Br)cc3F)nc[nH]c2cc1OCC1CCN(C)CC1` [Vandetanib (ZD6474)]: the “inhibition” value is 76.5%.

Turning to `Nc1c2c(nc3ccccc13)CCCC2` [Tacrine HCl], the “inhibition” value was found to be 24.3%.

On to `CCCCC(CC)COC(=O)C(C#N)=C(c1ccccc1)c1ccccc1` (configuration not stated) [Octocrylene], for which the “inhibition” value was determined as 20.3%.

Take `CN1CC(O)C2=C/C(=N/NC(N)=O)C(=O)C=C21` (configuration not stated) [Carbazochrome]: the “inhibition” value was 1.14%.

Take `O=c1sn(-c2cccc3ccccc23)c(=O)n1Cc1ccccc1` [Tideglusib]: the “inhibition” value was -10.1%.

For the compound `OC[C@@H](O)[C@@H](O)[C@H](O)[C@@H](O)CO` [Sorbitol], the “inhibition” value was found to be 17.1%.

As for `O=C(O)COc1nn(Cc2ccccc2)c2ccccc12` [Bendazac], the “inhibition” value was 3.68%.

As for `CCCCC(=O)O[C@]1(C(=O)CO)[C@@H](C)C[C@H]2[C@@H]3CCC4=CC(=O)C=C[C@]4(C)[C@@]3(F)[C@@H](O)C[C@@]21C` [Betamethasone Valerate], the “inhibition” value is 67.8%.

Consider `CC(=O)OCC(=O)[C@@]1(O)CC[C@H]2[C@@H]3CCC4=CC(=O)CC[C@]4(C)[C@H]3C(=O)C[C@@]21C` [Cortisone acetate], for which the “inhibition” value was found to be 12.5%.

In the case of `FC(F)(F)c1ccc(/C=C/c2nc(COc3ccc(CCCCn4ccnn4)cc3)co2)cc1` [Mubritinib (TAK 165)], the “inhibition” value came to 36.2%.

For `Nc1ccn(C[C@@H](CO)OCP(=O)(O)O)c(=O)n1` [Cidofovir], the “inhibition” value was found to be 6.82%.

With `CN(C)CCCOc1nn(Cc2ccccc2)c2ccccc12` [Benzydamine HCl], the “inhibition” value is -1.61%.

For the compound `COc1cc2nc(N3CCN(C(=O)C4CCCO4)CC3)nc(N)c2cc1OC` (configuration not stated) [Terazosin HCl], the “inhibition” value is -28.7%.

With `COc1cc2nc(N3CCN(C(=O)C4CCCO4)CC3)nc(N)c2cc1OC` (configuration not stated) [Terazosin HCl Dihydrate], the “inhibition” value was determined as 20.1%.

`Oc1ccc(O)cc1` [Hydroquinone]: the “inhibition” value came to 45.8%.

As for `NC(=O)[C@@H]1CC[C@@H]2CN1C(=O)N2OS(=O)(=O)O` [Avibactam sodium], the “inhibition” value was determined as 0.177%.

For `C[N+]1(C)CCC(=C(c2ccccc2)c2ccccc2)CC1` [Diphemanil Methylsulfate], the “inhibition” value came to 8.98%.

On to `CN(C)CCC=C1c2ccccc2C=Cc2ccccc21` [Cyclobenzaprine HCl], for which the “inhibition” value amounted to 17.2%.

On to `CN(C)CCc1c[nH]c2ccc(C[C@H]3COC(=O)N3)cc12` [Zolmitriptan], for which the “inhibition” value was 0.111%.

As for `O=c1[nH]c(=O)n([C@H]2C[C@H](O)[C@@H](CO)O2)cc1F` [Floxuridine], the “inhibition” value is -9.69%.

For `CNNCc1ccc(C(=O)NC(C)C)cc1` [Procarbazine HCl], the “inhibition” value was 14.7%.

For `COc1cc(C)c(/C=C/C(C)=C/C=C/C(C)=C/C(=O)O)c(C)c1C` [Acitretin], the “inhibition” value is -31.7%.

For the compound `CC(C)OC(=O)CCC/C=C\C[C@@H]1[C@@H](CC[C@@H](O)CCc2ccccc2)[C@H](O)C[C@@H]1O` [Latanoprost], the “inhibition” value worked out at 50.1%.

Take `CC(c1cc2ccccc2s1)N(O)C(N)=O` (configuration not stated) [Zileuton]: the “inhibition” value was determined as 45.6%.

`NC(=O)c1ncn([C@@H]2O[C@H](CO)[C@@H](O)[C@H]2O)c1N` [AICAR (Acadesine)]: the “inhibition” value is -14.6%.

Turning to `CCC(=O)O[C@H]1[C@H](O[C@@H]2[C@@H](C)[C@H](O[C@H]3C[C@@](C)(OC)[C@@H](O)[C@H](C)O3)[C@@H](C)C(=O)O[C@H](CC)[C@@](C)(O)[C@H](O)[C@@H](C)C(=O)[C@H](C)C[C@@]2(C)O)O[C@H](C)C[C@@H]1N(C)C` [Erythromycin estolate], the “inhibition” value is 69.3%.

On to `CCn1cc(C(=O)O)c(=O)c2cc(F)c(N3CCN(C)CC3)cc21` [Pefloxacin Mesylate Dihydrate], for which the “inhibition” value is -2.68%.

Consider `CCn1cc(C(=O)O)c(=O)c2cc(F)c(N3CCN(C)CC3)cc21` [Pefloxacin Mesylate], for which the “inhibition” value is -2.54%.

In the case of `C[C@@H]1O[C@@H]1P(=O)(O)O` [Fosfomycin Tromethamine], the “inhibition” value was found to be 2.16%.

On to `C[C@@H]1O[C@@H]1P(=O)(O)O` [Fosfomycin Disodium], for which the “inhibition” value is -7.23%.

With `C[C@@H]1CN(c2c(F)c(N)c3c(=O)c(C(=O)O)cn(C4CC4)c3c2F)C[C@H](C)N1` [Sparfloxacin], the “inhibition” value worked out at 14%.

For the compound `CC1(C)[C@@H](O[C@H]2O[C@H](C(=O)O)[C@@H](O)[C@H](O)[C@H]2O[C@@H]2O[C@H](C(=O)O)[C@@H](O)[C@H](O)[C@H]2O)CC[C@]2(C)[C@H]3C(=O)C=C4[C@@H]5C[C@@](C)(C(=O)O)CC[C@]5(C)CC[C@@]4(C)[C@]3(C)CC[C@@H]12` [Ammonium Glycyrrhizinate], the “inhibition” value stood at 2.43%.

With `CCOC(=O)CCC(=O)O[C@H]1[C@H](O[C@@H]2[C@@H](C)[C@H](O[C@H]3C[C@@](C)(OC)[C@@H](O)[C@H](C)O3)[C@@H](C)C(=O)O[C@H](CC)[C@@](C)(O)[C@H](O)[C@@H](C)C(=O)[C@H](C)C[C@@]2(C)O)O[C@H](C)C[C@@H]1N(C)C` [Erythromycin Ethylsuccinate], the “inhibition” value came to 4.38%.

Take `C[C@]12C=CC(=O)C=C1CC[C@@H]1[C@@H]2C(=O)C[C@@]2(C)[C@H]1CC[C@]2(O)C(=O)CO` [Prednisone]: the “inhibition” value stood at 19.1%.

As to `CS(=O)(=O)Nc1ccc([N+](=O)[O-])cc1Oc1ccccc1` [Nimesulide], the “inhibition” value amounted to 20.8%.

As to `CCn1cc(C(=O)O)c(=O)c2cc(F)c(N3CCNC(C)C3)c(F)c21` (configuration not stated) [Lomefloxacin], the “inhibition” value turned out to be 24.8%.

Take `CCn1cc(C(=O)O)c(=O)c2cc(F)c(N3CCNC(C)C3)c(F)c21` (configuration not stated) [Lomefloxacin HCl]: the “inhibition” value was 4.14%.

In the case of `CNC(=C[N+](=O)[O-])NCCSCc1csc(CN(C)C)n1` [Nizatidine], the “inhibition” value was 8.5%.

For `OCc1ccccc1` [Benzyl alcohol], the “inhibition” value was -23.8%.

For `CCC1=C[C@@H]2CN(C1)Cc1c([nH]c3ccccc13)[C@@](C(=O)OC)(c1cc3c(cc1OC)N(C)[C@H]1[C@@](O)(C(=O)OC)[C@H](OC(C)=O)[C@]4(CC)C=CCN5CC[C@]31[C@@H]54)C2` [Vinorelbine Tartrate], the “inhibition” value was 90.6%.
